Test results: publication PMC2447831
No constants are given. Whether binding was seen depends on the method and setting. Binding seen in cells or lysates may run through a third protein. Some binding calls cover weakened binding; strength is not graded here. Where a sequence is shown, tags or fusion partners need not be part of it.

Protein sequences, listed by entry. Tags and fused reporters are not part of them. Lines headed by an entry give the natural chain unless they say otherwise; changes in a name come on top. Residues count along the entry.
UniProt P46531: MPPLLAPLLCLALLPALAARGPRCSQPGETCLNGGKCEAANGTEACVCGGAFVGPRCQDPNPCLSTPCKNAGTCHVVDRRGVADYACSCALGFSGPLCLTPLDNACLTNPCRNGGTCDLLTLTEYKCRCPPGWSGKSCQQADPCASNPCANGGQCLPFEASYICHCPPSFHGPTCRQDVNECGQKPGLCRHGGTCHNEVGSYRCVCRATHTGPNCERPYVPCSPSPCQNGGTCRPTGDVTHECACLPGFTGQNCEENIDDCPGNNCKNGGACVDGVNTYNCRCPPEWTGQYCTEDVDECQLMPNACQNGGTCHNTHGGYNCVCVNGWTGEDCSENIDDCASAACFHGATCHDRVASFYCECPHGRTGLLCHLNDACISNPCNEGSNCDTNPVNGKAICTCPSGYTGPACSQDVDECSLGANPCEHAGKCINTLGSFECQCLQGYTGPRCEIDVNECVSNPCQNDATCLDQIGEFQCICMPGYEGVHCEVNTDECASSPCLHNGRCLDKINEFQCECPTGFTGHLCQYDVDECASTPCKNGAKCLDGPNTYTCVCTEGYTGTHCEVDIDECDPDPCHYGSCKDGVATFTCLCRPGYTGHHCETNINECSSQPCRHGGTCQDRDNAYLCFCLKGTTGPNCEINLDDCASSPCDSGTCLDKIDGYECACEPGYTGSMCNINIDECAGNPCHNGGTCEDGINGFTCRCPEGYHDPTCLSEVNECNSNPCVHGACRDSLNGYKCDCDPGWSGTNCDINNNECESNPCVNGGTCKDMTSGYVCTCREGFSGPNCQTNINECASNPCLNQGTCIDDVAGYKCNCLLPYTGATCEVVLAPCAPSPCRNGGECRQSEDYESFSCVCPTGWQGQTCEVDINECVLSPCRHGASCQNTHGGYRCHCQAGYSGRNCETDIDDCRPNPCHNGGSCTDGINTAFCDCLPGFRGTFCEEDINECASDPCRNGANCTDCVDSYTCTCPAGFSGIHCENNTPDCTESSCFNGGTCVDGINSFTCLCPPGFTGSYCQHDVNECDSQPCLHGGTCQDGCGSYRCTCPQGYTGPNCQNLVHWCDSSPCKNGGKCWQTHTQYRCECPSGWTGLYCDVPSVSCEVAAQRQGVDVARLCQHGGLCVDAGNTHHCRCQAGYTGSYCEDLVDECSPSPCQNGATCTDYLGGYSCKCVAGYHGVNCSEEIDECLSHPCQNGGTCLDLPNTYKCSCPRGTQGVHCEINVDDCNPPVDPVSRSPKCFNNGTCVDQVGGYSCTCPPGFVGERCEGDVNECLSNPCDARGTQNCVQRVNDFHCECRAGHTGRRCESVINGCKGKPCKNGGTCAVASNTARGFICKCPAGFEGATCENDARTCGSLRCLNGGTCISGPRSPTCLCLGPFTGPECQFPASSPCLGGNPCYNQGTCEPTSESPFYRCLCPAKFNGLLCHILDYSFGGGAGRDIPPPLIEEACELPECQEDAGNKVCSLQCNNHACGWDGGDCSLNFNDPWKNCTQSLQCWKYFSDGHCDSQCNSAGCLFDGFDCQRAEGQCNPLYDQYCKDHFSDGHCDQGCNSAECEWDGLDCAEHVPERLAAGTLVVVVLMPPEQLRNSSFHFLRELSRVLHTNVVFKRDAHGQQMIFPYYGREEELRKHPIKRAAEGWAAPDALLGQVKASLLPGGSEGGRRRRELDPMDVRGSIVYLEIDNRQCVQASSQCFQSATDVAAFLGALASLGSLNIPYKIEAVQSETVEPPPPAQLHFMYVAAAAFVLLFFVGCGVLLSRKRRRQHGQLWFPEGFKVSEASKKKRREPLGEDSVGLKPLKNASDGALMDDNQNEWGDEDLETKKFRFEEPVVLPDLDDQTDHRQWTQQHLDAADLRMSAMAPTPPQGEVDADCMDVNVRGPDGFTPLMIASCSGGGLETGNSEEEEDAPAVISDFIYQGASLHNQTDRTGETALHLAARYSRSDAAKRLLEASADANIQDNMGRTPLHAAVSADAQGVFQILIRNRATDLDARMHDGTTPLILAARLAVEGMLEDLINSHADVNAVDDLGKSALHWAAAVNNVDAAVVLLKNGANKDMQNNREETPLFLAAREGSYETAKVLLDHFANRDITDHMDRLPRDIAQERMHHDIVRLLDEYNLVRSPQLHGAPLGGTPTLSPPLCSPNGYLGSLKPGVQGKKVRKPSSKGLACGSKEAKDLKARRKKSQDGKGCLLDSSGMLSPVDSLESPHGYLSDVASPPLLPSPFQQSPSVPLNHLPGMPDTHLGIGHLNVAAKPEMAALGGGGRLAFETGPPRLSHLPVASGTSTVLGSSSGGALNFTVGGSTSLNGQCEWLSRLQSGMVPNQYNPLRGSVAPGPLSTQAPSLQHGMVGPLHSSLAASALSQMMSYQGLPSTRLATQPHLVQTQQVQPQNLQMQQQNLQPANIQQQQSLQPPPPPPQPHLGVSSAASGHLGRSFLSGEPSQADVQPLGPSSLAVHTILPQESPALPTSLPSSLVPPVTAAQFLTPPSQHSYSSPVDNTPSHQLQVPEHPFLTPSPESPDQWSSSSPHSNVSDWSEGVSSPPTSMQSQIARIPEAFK
full-length Notch-1 (human (endogenous in ReNcell CX)): residues 19-2555 of P46531
Notch-1 intracellular domain (NICD) (human (endogenous in ReNcell CX)): residues 1754-2555 of P46531

What was measured:
[1] = molecular target: Notch-1 intracellular domain (NICD) (human (endogenous in ReNcell CX)) (UniProt P46531); test: co-IP; HNPCs transfected with Dab-1-FLAG for 24 hours; lysed in RIPA buffer (150 mM NaCl, 1% IGEPAL CA-630, 0.5% sodium deoxycholate, 0.1% SDS, 50 mM Tris pH 8.0) with 1% Triton-X; 700 ug protein with anti-Flag, anti-Notch-1 or anti-NICD for 3 hours at 4 C, protein G- or A-Sepharose 1 hr at 4 C, washed 5x with lysis buffer; western blot
[2] = molecular target: full-length Notch-1 (human (endogenous in ReNcell CX)) (UniProt P46531); test: as above

B1: Dab-1 with a flag tag added to its C terminus (protein, UniProt O75553-6 1-555)
chain: MSTETELQVAVKTSAKKDSRKKGQDRSEATLIKRFKGEGVRYKAKLIGIDEVSAARGDKLCQDSMMKLKGVVAGARSKGEHKQKIFLTISFGGIKIFDEKTGALQHHHAVHEISYIAKDITDHRAFGYVCGKEGNHRFVAIKTAQAAEPVILDLRDLFQLIYELKQREELEKKAQKDKQCEQAVYQTILEEDVEDPVYQYIVFEAGHEPIRDPETEENIYQVPTSQKKEGVYDVPKSQPVSAVTQLELFGDMSTPPDITSPPTPATPGDAFIPSSSQTLPASADVFSSVPFGTAAVPSGYVAMGAVLPSFWGQQPLVQQQMVMGAQPPVAQVMPGAQPIAWGQPGLFPATQQPWPTVAGQFPPAAFMPTQTVMPLPAAMFQGPLTPLATVPGTSDSTRSSPQTDKPRQKMGKETFKDFQMAQPPPVPSRKPDQPSLTCTSEAFSSYFNKVGVAQDTDDCDDFDISQLNLTPVTSTTPSTNSPPTPAPRQSSPSKSSASHASDPTTDDIFEEGFESPSKSEEQEAPDGSQASSNSDPFGEPSGEPSGDNISPQAGS
In the case of B1, the binding [1] is reported as “binds” and the binding [2] is reported as “binds”.
